Experiments:
[1] = Body weights during 13 wk study, Example 1; format: in vivo, dog; conditions: Ex.1, 250 mg/d, mean ± SEM
Procedure: Experimental Design: Forty Labrador Retrievers (labs) ranging in age from 1 to 3.5 years were incorporated into a two dietary treatment study. The two dietary treatments were based on feeding the test dogs the same low L-carnitine diet but adding 250 mg per day of L-carnitine to the L-carnitine group. Each of the L-carnitine dogs received the daily 250 mg of L-carnitine mixed with an additional 3.75 g sugar. The control dogs received 4 g of sugar each day. Twenty labs of equal gender, age, excitement level, frame size, body weight and genetic background were utilized for each of the two treatments. The labs utilized for the nutrition study were from a minimum of 6 different bitches. The lean body mass of the 40 test dogs was determined by scanning with the DEXA and the final key component utilized to assure equal groups. Prior to the start of the study, the labs were acclimated to the experimental diets for a minimum of 10 days. The labs were weighed at the beginning of the 90 day study and weighed every two weeks throughout the study. Feed consumption was determined daily by weighing feed provided and feed refusals. The quantity of food provided each dog on a daily basis was adjusted based on maintaining a minimum initial starting body weight throughout the study. The dog food was provided by Lonza Inc. and was equal to the minimum guaranteed analysis of Gold N Pro (MFA of Missouri) that the performance dogs had been consuming prior to the start of the study (Table 1).

[2] = Weekly body weight, Example 2 part one; format: in vivo, dog
Procedure: The performance dogs were weighed at the beginning of the study and at one week intervals until the end of part one. Feed consumption and refusals were determined daily by weighing and recording the amount offered or refused. The quantity of food provided to each dog on a daily basis was adjusted based on the goal of maintaining the dog's minimum body weight throughout the study.

## C[N+](C)(C)C[C@H](O)CC(=O)[O-] [L-carnitine]
[1]; Week 1, both sexes
  Body weight: 61 ± 1.9 n = 20 lb
[1]; Week 1, females
  Body weight: 55 ± 1.2 n = 9 lb
[1]; Week 1, males
  Body weight: 65.9 ± 2.5 n = 11 lb
[1]; Week 3, both sexes
  Body weight: 63.4 ± 1.9 n = 20 lb
[1]; Week 3, females
  Body weight: 58.1 ± 1.2 n = 9 lb
[1]; Week 3, males
  Body weight: 67.8 ± 2.8 n = 11 lb
[1]; Week 5, both sexes
  Body weight: 62.8 ± 2 n = 20 lb
[1]; Week 5, females
  Body weight: 58.3 ± 1.2 n = 9 lb
[1]; Week 5, males
  Body weight: 66.6 ± 3 n = 11 lb
[1]; Week 7, both sexes
  Body weight: 63 ± 1.8 n = 20 lb
[1]; Week 7, females
  Body weight: 59 ± 1.4 n = 9 lb
[1]; Week 7, males
  Body weight: 66.3 ± 2.7 n = 11 lb
[1]; Week 9, both sexes
  Body weight: 62.8 ± 1.9 n = 20 lb
[1]; Week 9, females
  Body weight: 58.2 ± 1.7 n = 9 lb
[1]; Week 9, males
  Body weight: 66.5 ± 2.9 n = 11 lb
[1]; Week 11, both sexes
  Body weight: 64.4 ± 2 n = 20 lb
[1]; Week 11, females
  Body weight: 59 ± 1.5 n = 9 lb
[1]; Week 11, males
  Body weight: 68.8 ± 2.8 n = 11 lb
[1]; Week 13, both sexes
  Body weight: 64.9 ± 2 n = 20 lb
[1]; Week 13, females
  Body weight: 59.6 ± 1.5 n = 9 lb
[1]; Week 13, males
  Body weight: 69.3 ± 2.8 n = 11 lb
[2]; Week 1, all dogs
  Weekly Body Weight: 29.57 ± 0.96 kg
[2]; Week 1 Female
  Weekly Body Weight by Gender: 25.72 ± 0.93 kg
[2]; Week 1 Male
  Weekly Body Weight by Gender: 33.41 ± 0.82 kg
[2]; Week 2, all dogs
  Weekly Body Weight: 28.68 ± 0.88 kg
[2]; Week 2 Female
  Weekly Body Weight by Gender: 25.26 ± 0.88 kg
[2]; Week 2 Male
  Weekly Body Weight by Gender: 32.11 ± 0.81 kg
[2]; Week 3, all dogs
  Weekly Body Weight: 29.21 ± 0.89 kg
[2]; Week 3 Female
  Weekly Body Weight by Gender: 26.04 ± 0.98 kg
[2]; Week 3 Male
  Weekly Body Weight by Gender: 32.39 ± 0.9 kg
[2]; Week 4, all dogs
  Weekly Body Weight: 29.21 ± 0.89 kg
[2]; Week 4 Female
  Weekly Body Weight by Gender: 26.04 ± 0.98 kg
[2]; Week 4 Male
  Weekly Body Weight by Gender: 32.39 ± 0.9 kg
[2]; Week 5, all dogs
  Weekly Body Weight: 29.36 ± 0.9 kg
[2]; Week 5 Female
  Weekly Body Weight by Gender: 26.03 ± 0.98 kg
[2]; Week 5 Male
  Weekly Body Weight by Gender: 32.69 ± 0.86 kg
[2]; Week 6, all dogs
  Weekly Body Weight: 29.47 ± 0.89 kg
[2]; Week 6 Female
  Weekly Body Weight by Gender: 26.25 ± 1 kg
[2]; Week 6 Male
  Weekly Body Weight by Gender: 32.69 ± 0.84 kg
[2]; Week 7, all dogs
  Weekly Body Weight: 29.57 ± 0.89 kg
[2]; Week 7 Female
  Weekly Body Weight by Gender: 26.27 ± 0.94 kg
[2]; Week 7 Male
  Weekly Body Weight by Gender: 32.86 ± 0.87 kg
[2]; Week 8, all dogs
  Weekly Body Weight: 29.63 ± 0.9 kg
[2]; Week 8 Female
  Weekly Body Weight by Gender: 26.37 ± 1.01 kg
[2]; Week 8 Male
  Weekly Body Weight by Gender: 32.89 ± 0.86 kg
[2]; Week 9, all dogs
  Weekly Body Weight: 29.63 ± 0.9 kg
[2]; Week 9 Female
  Weekly Body Weight by Gender: 26.37 ± 1.01 kg
[2]; Week 9 Male
  Weekly Body Weight by Gender: 32.89 ± 0.86 kg
[2]; Week 10, all dogs
  Weekly Body Weight: 29.59 ± 0.9 kg
[2]; Week 10 Female
  Weekly Body Weight by Gender: 26.28 ± 0.99 kg
[2]; Week 10 Male
  Weekly Body Weight by Gender: 32.9 ± 0.83 kg
[2]; Week 11, all dogs
  Weekly Body Weight: 29.65 ± 0.9 kg
[2]; Week 11 Female
  Weekly Body Weight by Gender: 26.32 ± 0.98 kg
[2]; Week 11 Male
  Weekly Body Weight by Gender: 32.99 ± 0.84 kg
[2]; Week 12, all dogs
  Weekly Body Weight: 29.74 ± 0.93 kg
[2]; Week 12 Female
  Weekly Body Weight by Gender: 26.26 ± 1.02 kg
[2]; Week 12 Male
  Weekly Body Weight by Gender: 33.22 ± 0.81 kg
[2]; Week 13, all dogs
  Weekly Body Weight: 29.76 ± 0.91 kg
[2]; Week 13 Female
  Weekly Body Weight by Gender: 26.31 ± 0.99 kg
[2]; Week 13 Male
  Weekly Body Weight by Gender: 33.21 ± 0.8 kg
[2]; Week 14, all dogs
  Weekly Body Weight: 29.68 ± 0.9 kg
[2]; Week 14 Female
  Weekly Body Weight by Gender: 26.23 ± 0.95 kg
[2]; Week 14 Male
  Weekly Body Weight by Gender: 33.13 ± 0.81 kg

Source: US10016382B2, “Method for decreasing skeletal muscle damage and/or oxidative stress in mammals” (LONZA INC., priority 2014, dated 2018)
